Results published in US7718804B2, “Quaternary nitrogen heterocyclic compounds for detecting aqueous monosaccharides in physiological fluids” (University of Maryland Biotechnology Institute, priority 2003, dated 2010).

Assays:
[1] = pKa from normalized fluorescence intensity versus pH, with and without 100 mM sugar; type: physicochemical; conditions: pH 3→11
Text: A normalized plot of intensity at 427 nm as a function of pH is shown in FIG. 6, wherein I is the emission intensity at the specified pH and Io is the initial emission intensity at pH 3.0. Though not to be bound by theory, it is likely that the change in fluorescence intensity relative to pH value is attributed to the change in hybridization of the boron atom with increasing pH. At low pH values, the boronic acid group is an electron-deficient Lewis acid that is sp^2-hybridized and thus is trigonal planar. As the pH increases, the anionic form of the boronic acid begins to form, which corresponds to a more electron rich sp^3-hybridized boron atom and an […] shape. The change in the geometry of the boron atom induces the fluorescence spectral changes of the molecular sensing moieties.
Based on previously reported pKa values for boronic acid compounds, these pKa values are the lowest reported for a phenyl boronic acid derivative. […] Importantly, the large decrease in the pKa of the boronic acid-sugar complex relative to the uncomplexed boronic acid, allows for the quantitative detection of monosaccharides at or below physiological pH because substantial optical changes are observed. […]

[2] = Chloride quenching of fluorescence (Stern-Volmer constant); type: physicochemical; conditions: in water

| Compound | change of fluorescence intensity with pH [1] | Stern-Volmer constant KSV (chloride quenching) [2] |
| --- | --- | --- |
| COc1ccc2c(ccc[n+]2Cc2ccccc2)c1 [BMOQ, N-benzyl-6-methoxyquinolinium bromide] | no corresponding change in intensity with pH change | 222 M⁻¹ |
| Cc1ccc2c(ccc[n+]2Cc2ccccc2)c1 [BMQ, N-benzyl-6-methylquinolinium bromide] | no change in intensity with pH change | 35.0 M⁻¹ |
| COc1ccc2c(ccc[n+]2Cc2ccccc2B(O)O)c1.[Br-] [o-BMOQBA, N-(2-boronobenzyl)-6-methoxyquinolinium bromide] | – | 170 M⁻¹ |
| Cc1ccc2c(ccc[n+]2Cc2ccccc2B(O)O)c1.[Br-] [o-BMQBA, N-(2-boronobenzyl)-6-methylquinolinium bromide] | – | 44.0 M⁻¹ |
